Source: the supplement of paper PMC10849652
The list shows a part of the results.

Sequences of proteins named here, by UniProt entry; tags and fusion partners are left off. A change or cut given only in a name is not applied to a line headed by its entry.
UniProt O60925, whole entry, looked up: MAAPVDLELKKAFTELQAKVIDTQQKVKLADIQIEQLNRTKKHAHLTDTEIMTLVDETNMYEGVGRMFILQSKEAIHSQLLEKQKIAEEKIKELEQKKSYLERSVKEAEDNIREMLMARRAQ
UniProt Q5H8A4: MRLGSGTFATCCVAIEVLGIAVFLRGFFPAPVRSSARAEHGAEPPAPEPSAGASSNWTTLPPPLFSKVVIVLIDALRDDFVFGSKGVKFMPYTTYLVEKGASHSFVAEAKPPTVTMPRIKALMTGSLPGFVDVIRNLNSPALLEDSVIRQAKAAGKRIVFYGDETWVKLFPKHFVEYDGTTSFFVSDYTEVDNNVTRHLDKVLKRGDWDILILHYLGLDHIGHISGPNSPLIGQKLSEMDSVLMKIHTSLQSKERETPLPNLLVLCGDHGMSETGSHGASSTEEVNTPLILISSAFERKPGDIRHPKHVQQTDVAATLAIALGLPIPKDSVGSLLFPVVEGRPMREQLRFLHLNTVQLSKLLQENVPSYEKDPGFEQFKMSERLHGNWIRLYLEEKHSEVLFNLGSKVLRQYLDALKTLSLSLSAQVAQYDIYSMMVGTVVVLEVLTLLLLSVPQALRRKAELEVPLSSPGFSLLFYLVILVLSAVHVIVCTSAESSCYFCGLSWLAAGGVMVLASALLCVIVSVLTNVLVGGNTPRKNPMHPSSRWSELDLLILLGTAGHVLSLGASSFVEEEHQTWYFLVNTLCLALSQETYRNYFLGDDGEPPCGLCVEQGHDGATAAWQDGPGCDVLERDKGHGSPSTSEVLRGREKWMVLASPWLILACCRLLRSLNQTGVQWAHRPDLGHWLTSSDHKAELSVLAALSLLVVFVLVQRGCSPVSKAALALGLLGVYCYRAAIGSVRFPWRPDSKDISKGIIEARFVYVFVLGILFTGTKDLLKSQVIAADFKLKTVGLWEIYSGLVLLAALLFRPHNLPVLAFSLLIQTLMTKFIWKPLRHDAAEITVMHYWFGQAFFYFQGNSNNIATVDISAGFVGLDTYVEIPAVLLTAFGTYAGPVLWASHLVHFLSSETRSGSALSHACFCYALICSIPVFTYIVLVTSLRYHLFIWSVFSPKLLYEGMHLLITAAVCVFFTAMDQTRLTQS
UniProt O00628: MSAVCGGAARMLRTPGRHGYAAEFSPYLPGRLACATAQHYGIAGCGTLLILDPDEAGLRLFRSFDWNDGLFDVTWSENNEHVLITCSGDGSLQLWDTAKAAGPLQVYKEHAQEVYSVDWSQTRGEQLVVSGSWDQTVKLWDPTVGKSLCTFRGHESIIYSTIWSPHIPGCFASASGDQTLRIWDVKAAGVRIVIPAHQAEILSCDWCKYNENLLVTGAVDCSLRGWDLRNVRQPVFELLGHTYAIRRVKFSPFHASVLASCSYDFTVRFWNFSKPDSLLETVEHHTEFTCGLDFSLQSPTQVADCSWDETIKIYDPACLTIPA
UniProt Q86T03: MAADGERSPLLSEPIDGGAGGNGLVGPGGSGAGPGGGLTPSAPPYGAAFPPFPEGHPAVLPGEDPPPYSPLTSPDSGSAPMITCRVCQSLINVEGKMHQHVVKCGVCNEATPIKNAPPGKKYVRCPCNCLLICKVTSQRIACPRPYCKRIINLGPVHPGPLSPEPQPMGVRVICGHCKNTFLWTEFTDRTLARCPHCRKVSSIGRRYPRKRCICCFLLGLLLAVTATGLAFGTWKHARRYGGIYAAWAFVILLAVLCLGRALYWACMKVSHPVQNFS
UniProt Q8N4L2: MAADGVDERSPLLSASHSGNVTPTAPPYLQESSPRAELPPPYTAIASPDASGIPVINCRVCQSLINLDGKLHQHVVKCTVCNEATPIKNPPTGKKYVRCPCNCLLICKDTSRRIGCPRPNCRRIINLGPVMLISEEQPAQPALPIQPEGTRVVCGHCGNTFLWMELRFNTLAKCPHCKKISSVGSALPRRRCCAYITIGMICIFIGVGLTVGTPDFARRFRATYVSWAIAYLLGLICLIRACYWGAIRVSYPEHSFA
UniProt Q8NCC3: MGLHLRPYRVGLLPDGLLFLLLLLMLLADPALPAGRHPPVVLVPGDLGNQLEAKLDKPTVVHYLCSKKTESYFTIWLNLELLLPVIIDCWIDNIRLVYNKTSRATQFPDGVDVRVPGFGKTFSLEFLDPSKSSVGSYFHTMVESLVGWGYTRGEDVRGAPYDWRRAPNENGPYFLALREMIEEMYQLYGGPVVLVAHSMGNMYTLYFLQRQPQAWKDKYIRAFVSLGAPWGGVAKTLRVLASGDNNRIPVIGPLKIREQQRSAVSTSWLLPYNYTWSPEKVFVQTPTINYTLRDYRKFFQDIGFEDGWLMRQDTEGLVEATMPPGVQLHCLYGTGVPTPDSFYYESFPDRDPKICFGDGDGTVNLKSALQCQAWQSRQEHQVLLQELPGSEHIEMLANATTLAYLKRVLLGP
UniProt P46019: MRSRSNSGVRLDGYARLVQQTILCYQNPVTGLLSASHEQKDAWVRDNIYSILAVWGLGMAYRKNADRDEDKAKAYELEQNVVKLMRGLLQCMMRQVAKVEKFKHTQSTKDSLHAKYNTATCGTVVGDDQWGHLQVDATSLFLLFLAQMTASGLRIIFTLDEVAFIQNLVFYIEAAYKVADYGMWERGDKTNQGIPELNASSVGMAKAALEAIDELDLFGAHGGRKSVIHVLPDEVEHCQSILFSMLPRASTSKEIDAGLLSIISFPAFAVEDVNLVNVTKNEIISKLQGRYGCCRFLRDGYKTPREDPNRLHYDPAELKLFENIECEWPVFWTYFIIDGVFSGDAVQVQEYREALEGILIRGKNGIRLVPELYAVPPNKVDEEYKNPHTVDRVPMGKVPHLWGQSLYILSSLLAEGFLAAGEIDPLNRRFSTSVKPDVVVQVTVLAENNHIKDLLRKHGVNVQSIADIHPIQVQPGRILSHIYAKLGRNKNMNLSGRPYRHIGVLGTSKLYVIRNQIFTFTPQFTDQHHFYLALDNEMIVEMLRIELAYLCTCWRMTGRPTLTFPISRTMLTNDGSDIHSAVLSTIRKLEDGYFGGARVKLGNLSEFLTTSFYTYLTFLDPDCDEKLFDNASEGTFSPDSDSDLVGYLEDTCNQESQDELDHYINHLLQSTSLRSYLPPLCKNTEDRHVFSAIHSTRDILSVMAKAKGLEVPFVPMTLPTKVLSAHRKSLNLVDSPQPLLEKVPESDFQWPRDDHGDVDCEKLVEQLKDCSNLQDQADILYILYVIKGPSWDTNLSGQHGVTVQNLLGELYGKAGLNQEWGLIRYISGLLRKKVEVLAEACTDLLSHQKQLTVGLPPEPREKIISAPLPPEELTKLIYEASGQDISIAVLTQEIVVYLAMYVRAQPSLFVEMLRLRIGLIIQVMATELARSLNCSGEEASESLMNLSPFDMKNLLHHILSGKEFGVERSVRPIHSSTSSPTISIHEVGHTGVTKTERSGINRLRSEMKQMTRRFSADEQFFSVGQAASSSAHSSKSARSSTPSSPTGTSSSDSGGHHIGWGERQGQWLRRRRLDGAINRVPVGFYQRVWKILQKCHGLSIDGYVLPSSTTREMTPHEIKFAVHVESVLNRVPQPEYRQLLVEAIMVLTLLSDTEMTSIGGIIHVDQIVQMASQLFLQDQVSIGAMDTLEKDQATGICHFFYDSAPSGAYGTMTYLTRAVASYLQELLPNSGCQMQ
UniProt Q16512: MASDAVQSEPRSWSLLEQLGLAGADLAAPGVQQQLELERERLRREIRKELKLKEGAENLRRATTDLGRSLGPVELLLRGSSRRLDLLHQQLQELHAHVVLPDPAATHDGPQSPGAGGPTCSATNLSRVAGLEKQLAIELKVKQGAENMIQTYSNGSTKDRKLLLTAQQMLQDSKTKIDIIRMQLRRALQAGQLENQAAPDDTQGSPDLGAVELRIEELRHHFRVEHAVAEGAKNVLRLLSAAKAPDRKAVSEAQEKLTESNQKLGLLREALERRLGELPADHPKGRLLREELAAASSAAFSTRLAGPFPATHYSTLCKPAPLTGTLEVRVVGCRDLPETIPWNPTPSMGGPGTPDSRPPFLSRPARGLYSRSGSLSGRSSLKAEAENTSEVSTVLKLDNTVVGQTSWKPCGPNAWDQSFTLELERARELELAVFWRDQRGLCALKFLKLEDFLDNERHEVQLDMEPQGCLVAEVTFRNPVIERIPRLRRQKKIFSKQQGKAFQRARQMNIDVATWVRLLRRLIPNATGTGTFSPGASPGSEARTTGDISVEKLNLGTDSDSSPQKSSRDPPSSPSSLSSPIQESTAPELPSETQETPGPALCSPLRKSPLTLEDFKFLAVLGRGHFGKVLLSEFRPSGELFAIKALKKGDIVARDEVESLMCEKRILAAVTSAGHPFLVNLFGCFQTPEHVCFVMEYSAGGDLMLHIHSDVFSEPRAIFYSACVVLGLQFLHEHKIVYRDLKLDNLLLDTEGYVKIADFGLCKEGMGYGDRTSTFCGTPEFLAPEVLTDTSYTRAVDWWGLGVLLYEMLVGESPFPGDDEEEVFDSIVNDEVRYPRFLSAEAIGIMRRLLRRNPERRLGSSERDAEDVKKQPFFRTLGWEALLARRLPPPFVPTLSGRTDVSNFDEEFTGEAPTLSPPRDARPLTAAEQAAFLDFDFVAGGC
UniProt P15735: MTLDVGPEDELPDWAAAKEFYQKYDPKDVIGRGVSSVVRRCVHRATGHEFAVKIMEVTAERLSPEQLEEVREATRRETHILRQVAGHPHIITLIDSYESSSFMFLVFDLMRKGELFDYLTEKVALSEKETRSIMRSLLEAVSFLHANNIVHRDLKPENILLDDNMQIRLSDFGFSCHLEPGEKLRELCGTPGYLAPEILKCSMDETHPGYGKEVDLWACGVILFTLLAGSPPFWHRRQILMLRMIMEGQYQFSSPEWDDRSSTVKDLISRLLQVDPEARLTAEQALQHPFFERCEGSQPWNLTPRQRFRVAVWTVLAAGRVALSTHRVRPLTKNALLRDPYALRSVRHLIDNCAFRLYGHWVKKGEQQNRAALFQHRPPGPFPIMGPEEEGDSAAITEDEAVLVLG
UniProt Q6P4A8: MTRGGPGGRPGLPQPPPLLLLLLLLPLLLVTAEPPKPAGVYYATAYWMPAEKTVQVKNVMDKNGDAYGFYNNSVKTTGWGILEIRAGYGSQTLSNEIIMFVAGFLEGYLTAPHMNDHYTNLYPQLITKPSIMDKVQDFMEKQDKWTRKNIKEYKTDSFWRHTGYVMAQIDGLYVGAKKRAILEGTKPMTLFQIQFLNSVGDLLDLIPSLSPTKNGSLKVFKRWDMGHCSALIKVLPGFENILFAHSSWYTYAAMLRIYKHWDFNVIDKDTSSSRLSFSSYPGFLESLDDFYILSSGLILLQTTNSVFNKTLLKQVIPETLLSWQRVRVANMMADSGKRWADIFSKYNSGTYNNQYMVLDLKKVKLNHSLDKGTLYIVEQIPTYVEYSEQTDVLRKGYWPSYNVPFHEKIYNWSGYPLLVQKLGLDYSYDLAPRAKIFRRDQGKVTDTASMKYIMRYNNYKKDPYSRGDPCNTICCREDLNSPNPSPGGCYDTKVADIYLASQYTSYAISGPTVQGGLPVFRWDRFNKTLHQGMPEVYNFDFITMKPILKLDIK
UniProt O95394: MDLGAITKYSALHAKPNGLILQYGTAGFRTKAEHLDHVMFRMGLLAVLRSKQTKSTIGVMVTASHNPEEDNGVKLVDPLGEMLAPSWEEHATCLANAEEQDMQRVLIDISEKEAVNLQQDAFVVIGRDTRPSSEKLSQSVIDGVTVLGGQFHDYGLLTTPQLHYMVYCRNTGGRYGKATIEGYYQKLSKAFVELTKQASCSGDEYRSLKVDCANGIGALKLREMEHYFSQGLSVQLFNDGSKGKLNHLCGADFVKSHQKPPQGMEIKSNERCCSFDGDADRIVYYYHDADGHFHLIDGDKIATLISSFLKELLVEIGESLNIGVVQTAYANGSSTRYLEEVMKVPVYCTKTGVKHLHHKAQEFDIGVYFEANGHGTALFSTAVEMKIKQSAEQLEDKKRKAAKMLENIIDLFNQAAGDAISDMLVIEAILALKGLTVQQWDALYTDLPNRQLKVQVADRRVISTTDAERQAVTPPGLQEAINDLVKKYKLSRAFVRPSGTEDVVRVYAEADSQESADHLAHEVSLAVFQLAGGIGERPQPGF
UniProt P53609, whole entry, looked up: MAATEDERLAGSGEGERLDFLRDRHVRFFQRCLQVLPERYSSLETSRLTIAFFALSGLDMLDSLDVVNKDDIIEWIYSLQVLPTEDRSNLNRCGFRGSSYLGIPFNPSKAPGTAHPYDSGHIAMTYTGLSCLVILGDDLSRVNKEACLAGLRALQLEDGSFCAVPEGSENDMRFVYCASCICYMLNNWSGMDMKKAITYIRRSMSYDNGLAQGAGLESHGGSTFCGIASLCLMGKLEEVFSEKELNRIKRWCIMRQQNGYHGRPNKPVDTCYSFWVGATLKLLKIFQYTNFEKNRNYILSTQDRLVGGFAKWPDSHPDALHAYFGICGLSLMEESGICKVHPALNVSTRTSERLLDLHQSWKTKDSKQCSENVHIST

What was measured:
Test in all cases: log2 fold change, soluble protein after heating vs DMSO (PISA); higher = thermal stabilisation; K562 cells, 10 uM, 30 min; active = over 0.2 and 3.5 SD of the protein, either way, in both replicates (recomputed)
[1] = compound: COC1=CC=C(C=C1)CN2C=CC3=C2C=C(C=C3)C(=O)NO
Summary of the method: (§1)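 K562 cells (2×10^6 cells/mL) were treated with 10 μM compound for 30 min, and aliquots were heated for 3 min over 48°C-58°C. Pooled aliquots were extracted in PBS with 0.5% NP-40 at 4°C, and the supernatant after 21,000xg for 90 min was measured by TMTpro 16plex LC-MS/MS with channel sums equalised. Reported thermal stability, relative to control samples and from duplicates, is a log2 fold change.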

[2] = compound: CON(C)C(=O)N1N=C(c2cc(F)ccc2F)S[C@@]1(CCCN)c1ccccc1 [filanesib]
Summary of the method: as §1

[3] = compound: CO[C@H]1C[C@@H]2CC[C@@H](C)[C@@](O)(O2)C(=O)C(=O)N2CCCC[C@H]2C(=O)O[C@H]([C@H](C)C[C@@H]2CC[C@H](n3cnnn3)[C@H](OC)C2)CC(=O)[C@H](C)/C=C(\C)[C@@H](O)[C@@H](OC)C(=O)[C@H](C)C[C@H](C)/C=C/C=C/C=C/1C [zotarolimus]
Summary of the method: as §1

[4] = compound: COc1cc(C(=O)O)ccc1NC(=O)[C@@H]1N[C@@H](CC(C)(C)C)[C@](C#N)(c2ccc(Cl)cc2F)[C@H]1c1cccc(Cl)c1F [idasanutlin]
Summary of the method: as §1

[5] = compound: COc1cc(Nc2ncc3c(n2)-c2ccc(Cl)cc2C(c2c(F)cccc2OC)=NC3)ccc1C(=O)O [alisertib]
Summary of the method: as §1

[6] = compound: COc1cc2nc(-c3cc(F)ccc3O)nc(N[C@@H]3CNC[C@H]3C(C)(C)O)c2cc1OC
Summary of the method: as §1

[7] = compound: COc1cc2ncnc(Nc3ccc(F)c(Cl)c3)c2cc1OCCCN1CCOCC1 [gefitinib]
Summary of the method: as §1

[8] = compound: COc1cccc2cc(-c3nc([C@H]4CC[C@H](C(=O)O)CC4)n4ncnc(N)c34)[nH]c12
Summary of the method: as §1

[9] = compound: CS(=O)(=O)CCNCc1ccc(-c2ccc3ncnc(Nc4ccc(OCc5cccc(F)c5)c(Cl)c4)c3c2)o1 [lapatinib]
Summary of the method: as §1

[10] = compound: CS(=O)(=O)N1CCN(Cc2cc3nc(-c4cccc5[nH]ncc45)nc(N4CCOCC4)c3s2)CC1 [pictilisib]
Summary of the method: as §1

[11] = compound: CS(=O)(=O)c1ccc(-c2cnc(N)c(C(=O)Nc3ccccc3)n2)cc1
Summary of the method: as §1

[12] = compound: C[C@@H](Oc1cc(-c2cnn(C3CCNCC3)c2)cnc1N)c1c(Cl)ccc(F)c1Cl [crizotinib]
Summary of the method: as §1

[13] = compound: C[C@@H]1COCCN1C2=NC(=NC(=C2)C3(CC3)S(=O)(=O)C)C4=C5C=CNC5=CC=C4
Summary of the method: as §1

[14] = compound: C[C@H](C1=CC=C(C=C1)C(=O)NC2=C3C=CNC3=NC=C2)N
Summary of the method: as §1

[15] = compound: C[C@H](Nc1ncnc2nc[nH]c12)c1cc2cccc(Cl)c2c(=O)n1-c1ccccc1 [duvelisib]
Summary of the method: as §1

[16] = compound: Cc1cc(Nc2cc(CN3CCOCC3)c3nc(C)c(Cc4ccc(Cl)cc4F)n3n2)n[nH]1 [gandotinib]
Summary of the method: as §1

[17] = compound: Cc1cc(Nc2cc(N3CCN(C)CC3)nc(Sc3ccc(NC(=O)C4CC4)cc3)n2)n[nH]1 [tozasertib]
Summary of the method: as §1

[18] = compound: Cc1cc(SCc2sc(-c3ccc(C(F)(F)F)cc3)nc2C)ccc1OCC(=O)O
Summary of the method: as §1

[19] = compound: Cc1ccc(-n2nc(C(C)(C)C)cc2NC(=O)Nc2ccc(OCCN3CCOCC3)c3ccccc23)cc1 [doramapimod]
Summary of the method: as §1

[20] = compound: Cc1ccc(C(=O)N(CCCN)[C@@H](c2nc3cc(Cl)ccc3c(=O)n2Cc2ccccc2)C(C)C)cc1 [ispinesib]
Summary of the method: as §1

Target	log2 fold change [1]	log2 fold change [2]	log2 fold change [3]	log2 fold change [4]	log2 fold change [5]	log2 fold change [6]	log2 fold change [7]	log2 fold change [8]	log2 fold change [9]	log2 fold change [10]	log2 fold change [11]	log2 fold change [12]	log2 fold change [13]	log2 fold change [14]	log2 fold change [15]	log2 fold change [16]	log2 fold change [17]	log2 fold change [18]	log2 fold change [19]	log2 fold change [20]
PGM2L1 (UniProt Q6PCE3)	inactive: -0.004	inactive: -0.056	inactive: -0.03	inactive: -0.004	inactive: -0.017	inactive: 0.06	inactive: 0.027	inactive: 0.054	inactive: -0.017	inactive: 0.016	inactive: 0.025	inactive: 0.013	inactive: 0.033	inactive: -0.013	inactive: -0.012	inactive: -0.038	inactive: -0.042	inactive: -0.056	inactive: -0.022	inactive: 0.031
PFDN1 (UniProt O60925)	inactive: -0.048	inactive: -0.007	inactive: 0.091	inactive: -0.024	inactive: -0.042	inactive: -0.125	inactive: -0.002	inactive: 0.026	inactive: -0.047	inactive: 0.014	inactive: 0.018	inactive: 0.069	inactive: 0.264	inactive: -0.115		inactive: 0.029		inactive: 0.081	inactive: 0.018	inactive: 0.277
PITRM1 isoform 2 (UniProt Q5JRX3)	inactive: -0.097	active: -0.229	inactive: 0.124	inactive: -0.047	inactive: -0.009	inactive: -0.026	inactive: 0.137	inactive: 0.035	inactive: -0.04	inactive: -0.032	inactive: -0.042	inactive: 0.01	inactive: 0.094	inactive: -0.023		inactive: 0.038		inactive: 0	inactive: -0.014	active: -0.38
PIGG (UniProt Q5H8A4)	inactive: -0.01	inactive: -0.062	inactive: 0.073	inactive: 0.019	inactive: -0.048	inactive: 0.098	inactive: -0.122	inactive: 0.049	inactive: 0.046	inactive: 0.017	inactive: 0.062	inactive: -0.053	inactive: 0.01	inactive: -0.041		inactive: -0.035		inactive: 0.011	inactive: 0.098	inactive: -0.02
PEX7 (UniProt O00628)	inactive: 0.013	inactive: -0.063	inactive: 0.058	inactive: -0.002	inactive: -0.01	inactive: -0.09	inactive: -0.003	inactive: 0.072	inactive: -0.032	inactive: 0.055	inactive: -0.011	inactive: -0.037	inactive: 0.121	inactive: 0.024		inactive: -0.005		inactive: 0.145	inactive: 0.002	inactive: -0.078
PIP4K2C (UniProt Q8TBX8)	inactive: 0.058	inactive: -0.025	inactive: -0.021	inactive: -0.186	inactive: -0.021	active: 0.866	inactive: 0.115	inactive: 0.684	inactive: -0.043	inactive: 0.134	active: 1.06	inactive: -0.058	inactive: 0.042	inactive: 0.063		inactive: 0.033		inactive: 0.057	inactive: -0.044	inactive: 0.009
PIP4P1 isoform 2 (UniProt Q86T03)	inactive: 0.089	active: -0.32	inactive: 0.004	inactive: 0.002	inactive: 0.032	inactive: -0.072	inactive: -0.018	inactive: -0.058	inactive: 0.06	inactive: -0.061	inactive: 0.021	active: -0.395	inactive: -0.123	inactive: 0.086		inactive: 0.107		inactive: -0.048	inactive: -0.025	active: -0.353
PIP4P2 (UniProt Q8N4L2)	inactive: 0.053	active: -0.383	inactive: 0.027	inactive: 0.14	inactive: 0.022	inactive: 0.007	inactive: 0.009	inactive: -0.016	inactive: 0.03	inactive: 0.061	inactive: -0.057	active: -0.3	inactive: 0.013	inactive: -0.058		inactive: 0.017		inactive: 0.013	inactive: -0.032	active: -0.569
PLA2G15 (UniProt Q8NCC3)	inactive: -0.041	inactive: -0.076	inactive: -0.007	inactive: 0.01	inactive: 0.095	inactive: 0.03	inactive: 0.001	inactive: 0.056	inactive: -0.001	inactive: -0.01	inactive: 0	inactive: -0.163	inactive: -0.008	inactive: 0.015		inactive: -0.036		inactive: -0.016	inactive: 0.015	inactive: -0.055
PHKA2 (UniProt P46019)	inactive: -0.17	inactive: -0.055	inactive: 0.022	inactive: -0.104	inactive: -0.067	inactive: 0.064	inactive: -0.006	inactive: 0.025	inactive: -0.037	inactive: 0.078	inactive: -0.247	inactive: -0.076	inactive: 0.051	inactive: -0.108		inactive: -0.083		inactive: 0.071	inactive: 0.053	inactive: -0.013
PKN1 isoform 2 (UniProt Q16512)	inactive: 0.001	inactive: 0.019	inactive: 0.046	inactive: -0.05	inactive: -0.021	inactive: -0.217	inactive: 0.001	inactive: -0.044	inactive: -0.009	inactive: -0.007	inactive: 0.03	inactive: -0.233	inactive: -0.015	inactive: -0.12		inactive: -0.165		inactive: 0.075	inactive: 0.022	inactive: -0.065
PHKG2 (UniProt P15735)	inactive: 0.014	inactive: -0.01	inactive: -0.051	inactive: 0.007	inactive: -0.026	inactive: 0.219	inactive: -0.063	inactive: 0.015	inactive: 0.105	inactive: -0.055	inactive: 0.015	inactive: 0	inactive: -0.097	inactive: 0.053		inactive: -0.017		inactive: -0.006	inactive: 0.044	inactive: 0.018
PLBD1 (UniProt Q6P4A8)	inactive: -0.076	inactive: -0.051	inactive: -0.057	inactive: 0.019	inactive: 0.169	inactive: -0.016	inactive: 0.019	inactive: 0.048	inactive: 0.03	inactive: 0.039	inactive: -0.01	inactive: -0.082	inactive: 0.009	inactive: -0.032		inactive: 0.011		inactive: -0.032	inactive: -0.007	inactive: 0.016
PLD3 (UniProt Q8IV08)	inactive: -0.027	inactive: -0.131	inactive: -0.006	inactive: 0.001	inactive: -0.139	inactive: 0.019	inactive: 0.008	inactive: 0.027	inactive: -0.025	inactive: 0.045	inactive: -0.034	inactive: -0.158	inactive: 0.005	inactive: -0.03		inactive: 0.006		inactive: -0.023	inactive: 0.001	inactive: -0.132
PGM3 isoform 4 (UniProt O95394)	inactive: 0.052	inactive: -0.135	inactive: 0.007	inactive: -0.079	inactive: -0.007	inactive: 0	inactive: -0.028	inactive: -0.01	inactive: -0.014	inactive: -0.047	inactive: 0.025	inactive: -0.098	inactive: 0.04	inactive: -0.024		inactive: -0.034		inactive: 0.108	inactive: 0.016	inactive: -0.09
PLCB3 (UniProt Q01970)	inactive: -0.004	inactive: -0.118	inactive: 0.007	inactive: -0.044	inactive: -0.05	inactive: -0.008	inactive: -0.003	inactive: 0.013	inactive: -0.028	inactive: 0.055	inactive: 0	inactive: -0.07	inactive: 0.014	inactive: 0.013		inactive: 0.031		inactive: 0.034	inactive: 0.014	inactive: -0.078
PGGT1B (UniProt P53609)	inactive: -0.112	inactive: 0.047	inactive: -0.006	inactive: -0.025	inactive: -0.03	inactive: -0.031	inactive: -0.013	inactive: 0.058	inactive: -0.019	inactive: 0.037	inactive: 0.093	inactive: 0.04	inactive: 0.002	inactive: -0.05		inactive: -0.011		inactive: -0.143	inactive: -0.028	inactive: 0.043

Some entries already given with just log2 fold change [8], log2 fold change [19] and log2 fold change [1].

| Target | log2 fold change [8] | log2 fold change [19] | log2 fold change [1] |
| --- | --- | --- | --- |
| PIGG (UniProt Q5H8A4) | inactive: 0.049 | inactive: 0.098 | inactive: -0.01 |
| PEX7 (UniProt O00628) | inactive: 0.072 | inactive: 0.002 | inactive: 0.013 |
